Results are given in words; binding and its absence hold for the method and conditions named. In cells and extracts the contact can be indirect. Some binding calls cover weakened binding; strength is not graded here. One block for each molecule: values may come before it.
Columns and labels:
[1] = molecular target: T1, ICA69 (Islet Cell Autoantigen 69 kD) (mouse (endogenous in isolated islets)) (UniProt P97411); assay: co-IP; in vivo co-IP from about 100 isolated islets solubilised in 1% Triton X-100 with protease inhibitors; anti-PICK1 or anti-ICA69 sera on Protein A Sepharose, 2-3 h at 4°C; Western blotting; peptide-block controls
T1 sequence: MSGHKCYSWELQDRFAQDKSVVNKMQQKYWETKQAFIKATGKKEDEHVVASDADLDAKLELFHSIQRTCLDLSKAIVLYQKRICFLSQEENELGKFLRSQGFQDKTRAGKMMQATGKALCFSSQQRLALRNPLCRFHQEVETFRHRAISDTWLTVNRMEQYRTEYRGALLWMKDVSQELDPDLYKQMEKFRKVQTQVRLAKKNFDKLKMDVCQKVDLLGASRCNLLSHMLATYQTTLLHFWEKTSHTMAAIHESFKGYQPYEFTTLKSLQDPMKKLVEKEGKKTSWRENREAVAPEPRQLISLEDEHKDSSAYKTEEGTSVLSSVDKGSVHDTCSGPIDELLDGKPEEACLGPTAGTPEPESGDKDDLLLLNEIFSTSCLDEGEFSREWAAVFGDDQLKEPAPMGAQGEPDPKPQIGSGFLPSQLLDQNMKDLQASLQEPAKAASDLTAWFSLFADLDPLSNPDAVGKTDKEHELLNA

The chains behind the UniProt entries cited, without tags or fusion partners.
UniProt Q62083: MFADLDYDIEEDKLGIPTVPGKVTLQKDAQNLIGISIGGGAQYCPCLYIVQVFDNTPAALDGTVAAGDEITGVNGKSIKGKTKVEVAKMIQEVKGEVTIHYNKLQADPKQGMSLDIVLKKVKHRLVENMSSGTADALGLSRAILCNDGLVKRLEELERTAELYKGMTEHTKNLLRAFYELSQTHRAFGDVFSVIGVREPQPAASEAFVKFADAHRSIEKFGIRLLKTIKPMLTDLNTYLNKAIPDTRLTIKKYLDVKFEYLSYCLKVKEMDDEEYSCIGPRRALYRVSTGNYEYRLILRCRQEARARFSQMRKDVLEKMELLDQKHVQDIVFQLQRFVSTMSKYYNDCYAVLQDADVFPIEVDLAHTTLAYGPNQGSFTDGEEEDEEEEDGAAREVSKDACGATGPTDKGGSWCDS

[2] = molecular target: PICK1 (protein interacting with C-kinase 1) (mouse (endogenous in isolated islets)) (UniProt Q62083); assay: as above

- binding [1]: binds
Molecule: PICK1 (protein interacting with C-kinase 1) (from UniProt Q62083 1-416)

- binding [2]: binds
B1: ICA69 (Islet Cell Autoantigen 69 kD) (protein, UniProt P97411 1-478)
chain: T1 sequence
